Measured values taken from article PMC8894380.

Key:
[1] = biological target: T1, C9ORF78 with C-terminal 3xFlag-His6-Biotin-His6 tag (human) (UniProt Q9NZ63); experiment: affinity purification with mass spectrometry; Flag-IP (Flag M2 affinity gel) from 500 ug nuclear extract of Flp-In T-REx 293 stable cells, IP buffer 150 mM NaCl with benzonase, eluted with 3xFlag peptide; label-free LC-MS against control IP of unmodified cells
T1 sequence: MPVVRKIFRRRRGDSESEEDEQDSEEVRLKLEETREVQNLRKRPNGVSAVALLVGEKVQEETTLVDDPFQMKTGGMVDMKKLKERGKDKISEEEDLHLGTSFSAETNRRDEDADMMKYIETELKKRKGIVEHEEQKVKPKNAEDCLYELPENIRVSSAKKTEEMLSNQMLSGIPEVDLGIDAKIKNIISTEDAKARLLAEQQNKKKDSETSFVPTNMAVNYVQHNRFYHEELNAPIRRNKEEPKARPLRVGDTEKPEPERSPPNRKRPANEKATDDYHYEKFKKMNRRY

[2] = biological target: T2, C9ORF78^R41A with C-terminal 3xFlag-His6-Biotin-His6 tag (human) (UniProt Q9NZ63); experiment: as above
T2 sequence: T1 sequence with R41A

binding [1]: binds
binding [2]: binds
B1: aquarius (AQR) (protein, UniProt O60306 1-1485)
chain: MAAPAQPKKIVAPTVSQINAEFVTQLACKYWAPHIKKKSPFDIKVIEDIYEKEIVKSRFAIRKIMLLEFSQYLENYLWMNYSPEVSSKAYLMSICCMVNEKFRENVPAWEIFKKKPDHFPFFFKHILKAALAETDGEFSLHEQTVLLLFLDHCFNSLEVDLIRSQVQQLISLPMWMGLQLARLELELKKTPKLRKFWNLIKKNDEKMDPEAREQAYQERRFLSQLIQKFISVLKSVPLSEPVTMDKVHYCERFIELMIDLEALLPTRRWFNTILDDSHLLVHCYLSNLVRREEDGHLFSQLLDMLKFYTGFEINDQTGNALTENEMTTIHYDRITSLQRAAFAHFPELYDFALSNVAEVDTRESLVKFFGPLSSNTLHQVASYLCLLPTLPKNEDTTFDKEFLLELLVSRHERRISQIQQLNQMPLYPTEKIIWDENIVPTEYYSGEGCLALPKLNLQFLTLHDYLLRNFNLFRLESTYEIRQDIEDSVSRMKPWQSEYGGVVFGGWARMAQPIVAFTVVEVAKPNIGENWPTRVRADVTINLNVRDHIKDEWEGLRKHDVCFLITVRPTKPYGTKFDRRRPFIEQVGLVYVRGCEIQGMLDDKGRVIEDGPEPRPNLRGESRTFRVFLDPNQYQQDMTNTIQNGAEDVYETFNIIMRRKPKENNFKAVLETIRNLMNTDCVVPDWLHDIILGYGDPSSAHYSKMPNQIATLDFNDTFLSIEHLKASFPGHNVKVTVEDPALQIPPFRITFPVRSGKGKKRKDADVEDEDTEEAKTLIVEPHVIPNRGPYPYNQPKRNTIQFTHTQIEAIRAGMQPGLTMVVGPPGTGKTDVAVQIISNIYHNFPEQRTLIVTHSNQALNQLFEKIMALDIDERHLLRLGHGEEELETEKDFSRYGRVNYVLARRIELLEEVKRLQKSLGVPGDASYTCETAGYFFLYQVMSRWEEYISKVKNKGSTLPDVTEVSTFFPFHEYFANAPQPIFKGRSYEEDMEIAEGCFRHIKKIFTQLEEFRASELLRSGLDRSKYLLVKEAKIIAMTCTHAALKRHDLVKLGFKYDNILMEEAAQILEIETFIPLLLQNPQDGFSRLKRWIMIGDHHQLPPVIKNMAFQKYSNMEQSLFTRFVRVGVPTVDLDAQGRARASLCNLYNWRYKNLGNLPHVQLLPEFSTANAGLLYDFQLINVEDFQGVGESEPNPYFYQNLGEAEYVVALFMYMCLLGYPADKISILTTYNGQKHLIRDIINRRCGNNPLIGRPNKVTTVDRFQGQQNDYILLSLVRTRAVGHLRDVRRLVVAMSRARLGLYIFARVSLFQNCFELTPAFSQLTARPLHLHIIPTEPFPTTRKNGERPSHEVQIIKNMPQMANFVYNMYMHLIQTTHHYHQTLLQLPPAMVEEGEEVQNQETELETEEEAMTVQADIIPSPTDTSCRQETPAFQTDTTPSETGATSTPEAIPALSETTPTVVGAVSAPAEANTPQDATSAPEETK

binding [1]: binds
binding [2]: binds
B2: PRPF22 (DHX8) (enzyme, UniProt Q14562 1-1220)
chain: MAVAVAMAGALIGSEPGPAEELAKLEYLSLVSKVCTELDNHLGINDKDLAEFVISLAEKNTTFDTFKASLVKNGAEFTDSLISNLLRLIQTMRPPAKPSTSKDPVVKPKTEKEKLKELFPVLCQPDNPSVRTMLDEDDVKVAVDVLKELEALMPSAAGQEKQRDAEHRDRTKKKKRSRSRDRNRDRDRDRERNRDRDHKRRHRSRSRSRSRTRERNKVKSRYRSRSRSQSPPKDRKDRDKYGERNLDRWRDKHVDRPPPEEPTIGDIYNGKVTSIMQFGCFVQLEGLRKRWEGLVHISELRREGRVANVADVVSKGQRVKVKVLSFTGTKTSLSMKDVDQETGEDLNPNRRRNLVGETNEETSMRNPDRPTHLSLVSAPEVEDDSLERKRLTRISDPEKWEIKQMIAANVLSKEEFPDFDEETGILPKVDDEEDEDLEIELVEEEPPFLRGHTKQSMDMSPIKIVKNPDGSLSQAAMMQSALAKERRELKQAQREAEMDSIPMGLNKHWVDPLPDAEGRQIAANMRGIGMMPNDIPEWKKHAFGGNKASYGKKTQMSILEQRESLPIYKLKEQLVQAVHDNQILIVIGETGSGKTTQITQYLAEAGYTSRGKIGCTQPRRVAAMSVAKRVSEEFGCCLGQEVGYTIRFEDCTSPETVIKYMTDGMLLRECLIDPDLTQYAIIMLDEAHERTIHTDVLFGLLKKTVQKRQDMKLIVTSATLDAVKFSQYFYEAPIFTIPGRTYPVEILYTKEPETDYLDASLITVMQIHLTEPPGDILVFLTGQEEIDTACEILYERMKSLGPDVPELIILPVYSALPSEMQTRIFDPAPPGSRKVVIATNIAETSLTIDGIYYVVDPGFVKQKVYNSKTGIDQLVVTPISQAQAKQRAGRAGRTGPGKCYRLYTERAYRDEMLTTNVPEIQRTNLASTVLSLKAMGINDLLSFDFMDAPPMETLITAMEQLYTLGALDDEGLLTRLGRRMAEFPLEPMLCKMLIMSVHLGCSEEMLTIVSMLSVQNVFYRPKDKQALADQKKAKFHQTEGDHLTLLAVYNSWKNNKFSNPWCYENFIQARSLRRAQDIRKQMLGIMDRHKLDVVSCGKSTVRVQKAICSGFFRNAAKKDPQEGYRTLIDQQVVYIHPSSALFNRQPEWVVYHELVLTTKEYMREVTTIDPRWLVEFAPAFFKVSDPTKLSKQKKQQRLEPLYNRYEEPNAWRISRAFRRR

Positions count from the first letter of the chain named. Results are given in words; binding and its absence hold for the method and conditions named. Binding seen in cells or lysates may run through a third protein. These calls come from enrichment with a bait or labelling near it, and not all partners need be listed. Where a sequence is shown, tags or fusion partners need not be part of it. Each block holds one binder with its values, some of them ahead of it.
